From PubChem BioAssay AID1671190 (National Center for Advancing Translational Sciences (NCATS), 2021)
“And” between values parts separate entries of the source, which are not always exact repeats. Equal values may be shown once. About 6,100 (1.1%) of roughly 580,000 compounds were called active. Inconclusive results, whose numbers are uncertain, are shown with a selection of clear calls. Calls follow the shape of the dose curve; as a rule, active = well fitted inhibition curve with a large enough effect; inconclusive = small, poorly fitted or top-dose-only effect, or another doubt; inactive = no such curve, though single readings can be large or run the other way. Where the call is inconclusive, the potency comes from a doubtful curve fit.

Sequences of proteins named here, by UniProt entry; tags and fusion partners are left off.
UniProt P18054, whole entry, looked up: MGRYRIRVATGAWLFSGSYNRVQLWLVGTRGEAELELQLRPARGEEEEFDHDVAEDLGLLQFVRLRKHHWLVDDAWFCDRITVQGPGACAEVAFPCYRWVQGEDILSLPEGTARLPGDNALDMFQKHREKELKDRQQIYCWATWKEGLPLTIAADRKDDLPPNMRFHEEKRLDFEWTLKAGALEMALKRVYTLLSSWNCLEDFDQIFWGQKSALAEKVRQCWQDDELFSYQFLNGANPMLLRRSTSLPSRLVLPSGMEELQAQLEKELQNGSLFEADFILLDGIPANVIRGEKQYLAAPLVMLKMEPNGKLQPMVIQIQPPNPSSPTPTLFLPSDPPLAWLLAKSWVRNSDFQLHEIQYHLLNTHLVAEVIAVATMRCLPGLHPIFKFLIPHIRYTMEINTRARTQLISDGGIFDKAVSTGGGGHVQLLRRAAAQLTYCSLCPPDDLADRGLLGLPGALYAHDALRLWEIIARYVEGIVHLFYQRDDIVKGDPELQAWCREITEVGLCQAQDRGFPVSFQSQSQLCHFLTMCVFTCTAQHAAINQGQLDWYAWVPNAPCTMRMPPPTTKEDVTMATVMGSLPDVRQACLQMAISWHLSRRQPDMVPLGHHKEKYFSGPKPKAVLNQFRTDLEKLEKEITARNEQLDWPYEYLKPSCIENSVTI

target: Polyunsaturated fatty acid lipoxygenase ALOX12 (Homo sapiens) (UniProt P18054); experiment: Primary qHTS assay for inhibitors of human arachidonate 12S-lipoxygenase (ALOX12): Round 2; conditions: purified 12hLO, xylenol orange hydroperoxide absorbance; activity change, negative = inhibition: at 108 µM (top of the series) unless noted
Summary of the method: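 Purified human 12hLO (150 nM final) in 25 mM Hepes, 0.01% Triton X-100, pH 7.0 was preincubated 15 min at room temperature with compound. Then 40 uM arachidonic acid was added, 30 min. Hydroperoxide was read by Fe-XO absorbance ratio 573/405 nm.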
% is scaled to controls: 0 for no effect and ±100 for the full control effect; potency is read from the fitted curve at half-maximal effect.

Question: How did the Potency turn out when CC1CCC(NC(=O)c2cc3n(n2)CC(c2ccc4c(c2)OCO4)OC3)CC1 (configuration not stated) was run?
Answer: inactive

Question: For Cc1ccc(NC(=O)c2ccc3[nH]c(C)c(C)c3c2)cc1, which Potency is on record?
Answer: inconclusive: 100 µM [inhibitor, partial curve, poor fit]

Question: With S=c1[nH]nc(-c2cc(-c3ccco3)[nH]n2)n1-c1ccccc1Cl as the molecule, how does the Potency read?
Answer: inconclusive: 5.62 µM [inhibitor, full curve, poor fit]

Question: For COc1ccc(NC(=O)CN2C(=O)CSc3ccc(S(=O)(=O)N(C)C)cc32)cc1Cl, which Potency is on record?
Answer: inactive

Question: With C=CCn1c(-c2csc3ccccc23)n[nH]c1=S as the molecule, how does the Potency read?
Answer: inconclusive: 35.5 µM [inhibitor, partial curve, poor fit]

Question: How did the Potency turn out when O=C(COC(=O)c1cc(=O)c2ccccc2o1)Nc1c(F)c(F)c(F)c(F)c1F was run?
Answer: inconclusive: 50.1 µM [inhibitor, partial curve, poor fit]

Question: Which Potency does the source give for Cc1cccnc1NC(=O)c1ccc2nc(C)c(C)nc2c1 here?
Answer: inactive

Question: O=C(COC(=O)CCN1C(=O)/C(=C\C=C\c2ccccc2)SC1=S)Nc1cc(F)ccc1F was tested. Which Potency did it give?
Answer: inconclusive: 39.8 µM [inhibitor, partial curve]

Question: Which Potency does the source give for CCCCCCN1CCN(C2CN(Cc3cn(Cc4cccc(Cl)c4)nn3)S(=O)(=O)C2)CC1 (configuration not stated) here?
Answer: inconclusive: 39.8 µM [inhibitor, partial curve]

Question: How did the Potency turn out when CN(C)CCCNC(=O)C[C@H]1C[C@H](C(=O)N2CCOCC2)[C@@]2(CCC3CCCC3)c3[nH]c4cc(-c5ccco5)ccc4c3CCN2C1=O was run?
Answer: inconclusive: 63.1 µM [inhibitor, partial curve, poor fit]

Question: Cc1ccc(-n2ncc(C(=O)NCc3ccccn3)c2C2CCN(C(=O)OC(C)(C)C)CC2)c(C)c1 was tested. Which Potency did it give?
Answer: inactive

Question: How did the Potency turn out when CCCN1CCC2(CCN(C(=O)COC)CC2)Oc2ccccc21 was run?
Answer: inconclusive: 79.4 µM [inhibitor, partial curve, poor fit]

Question: With O=C1CS/C(=N\NC(=O)c2ccccc2)N1 as the molecule, how does the Potency read?
Answer: inactive

Question: Which Potency does the source give for COC(=O)c1c(C)[nH]c(C(=O)OCC(=O)NC(C)(C)C)c1C here?
Answer: inconclusive: 158 µM [inhibitor, single point]

Question: For COc1ccc(-c2noc(N3CCC(C(=O)Nc4ccc(OC)c(OC)c4)CC3)n2)cc1, which Potency is on record?
Answer: inactive

Question: Which Potency does the source give for Cc1ccccc1NC(=S)NCCc1c[nH]c2ccccc12 here?
Answer: inconclusive: 50.1 µM [inhibitor, partial curve, poor fit]

Question: How did the Potency turn out when COc1c(O)c(O)c2oc(-c3ccccc3)cc(=O)c2c1OC was run?
Answer: inconclusive: 7.08 µM [inhibitor, full curve, poor fit]

Question: With O=S(=O)(c1ccccc1)c1nc(-c2ccc(Cl)cc2)oc1NCCCN1CCOCC1 as the molecule, how does the Potency read?
Answer: inactive

Question: How did the Potency turn out when CCCNC(=O)N1N=C(c2ccc(N)cc2)c2cc3c(cc2[C@H]1C)OCO3 was run?
Answer: inactive

Question: For COCc1cc(N2CCN(C(=O)OC(C)(C)C)C[C@H]2C)ccc1N1CCS(=O)(=O)CC1, which Potency is on record?
Answer: inactive

Question: COC(=O)CC(NC(=O)c1cc2ccccc2oc1=O)c1ccccc1 (configuration not stated) was tested. Which Potency did it give?
Answer: inactive

Question: For N#Cc1cnn2c(=O)[nH]cnc12, which Potency is on record?
Answer: inconclusive: 79.4 µM [inhibitor, single point]

Question: For CCCCCCCCN1C(=O)[C@@H](CC(=O)N2CCOCC2)C[C@@]2(C(=O)OC)C1=C[C@H](C(C)(C)C)O[C@@H]2C, which Potency is on record?
Answer: inactive

Question: CN1/C(=C\C(=O)CSc2nnc(NCc3ccccc3)s2)C(C)(C)c2ccccc21 was tested. Which Potency did it give?
Answer: inconclusive: 20 µM [inhibitor, partial curve, poor fit]

Question: For COc1cccc(/C=N/NC(=O)C(c2ccncc2)N2CCOCC2)c1 (configuration not stated), which Potency is on record?
Answer: inactive

Question: CCCCCCOc1ccc(CNCc2cc(OC)c(OC)cc2OC)cc1 was tested. Which Potency did it give?
Answer: inconclusive: 6.31 µM [inhibitor, full curve, poor fit]

Question: O=C(Nc1ccc(F)cc1F)c1cc(-c2ccco2)nc2ccccc12 was tested. Which Potency did it give?
Answer: active: 10 µM and inconclusive: 44.7 µM [inhibitor, partial curve]

Question: COc1ccc(C(=O)NC(=S)Nc2ccc(N3CCOCC3)cc2)cc1Cl was tested. Which Potency did it give?
Answer: active: 15.8 µM

Question: With CC(C(=O)Nc1ccccc1C(F)(F)F)N1C(=O)c2ccccc2C1=O (configuration not stated) as the molecule, how does the Potency read?
Answer: inconclusive: 50.1 µM [inhibitor, partial curve, poor fit]

Question: With CCNC(=O)O[C@@H]1CO[C@H]2[C@@H]1OC[C@@H]2NC(=S)Nc1ccccc1 as the molecule, how does the Potency read?
Answer: inconclusive: 89.1 µM [inhibitor, partial curve]

Question: With COc1ccc(NC(=O)CSCc2ccc(C#N)cc2)c(OC)c1 as the molecule, how does the Potency read?
Answer: inconclusive: 63.1 µM [inhibitor, partial curve, poor fit]

Question: How did the Potency turn out when CCNC(=S)NN=C1c2ccccc2-c2ccccc21 was run?
Answer: active: 35.5 µM

Question: Which Potency does the source give for COCCN1C[C@H]2CN(Cc3ccccc3)CCN2C1=O here?
Answer: inactive

Question: Which Potency does the source give for Cc1cccc(NC(=O)COc2coc(CN3CCN(c4ccccc4)CC3)cc2=O)c1 here?
Answer: inconclusive: 50.1 µM [inhibitor, partial curve, poor fit]

Question: O=C(NCCc1ccc(Cl)cc1)C1CCc2nnc(C3CCN(C(=O)Nc4ccc(Cl)cc4)CC3)n21 (configuration not stated) was tested. Which activity change, negative = inhibition did it give?
Answer: inactive: 1.96% [at 6.33 µM]

Question: Which Potency does the source give for Cc1nc2cnc(Oc3ccccc3)nc2n(C2CC2)c1=O here?
Answer: inconclusive: 89.1 µM [inhibitor, single point]

Question: Which Potency does the source give for CC(OC(=O)C1CCN(S(=O)(=O)c2ccc(C(C)(C)C)cc2)CC1)C(=O)N1CCCCCC1 (configuration not stated) here?
Answer: inactive

Question: Cc1ccc(C2=C/C(=C\c3cccnc3)C(=O)O2)cc1 was tested. Which Potency did it give?
Answer: inconclusive: 63.1 µM [inhibitor, partial curve, poor fit]

Question: C/C(=N\NC(=S)NCc1ccccc1)c1ccco1 was tested. Which Potency did it give?
Answer: inconclusive: 44.7 µM [inhibitor, partial curve, poor fit]

Question: CCOc1cc(/C=C2/NC(=O)NC2=O)cc(Cl)c1OCc1ccccc1F was tested. Which Potency did it give?
Answer: inconclusive: 89.1 µM [inhibitor, single point]

Question: With CC(C)(c1cc(Br)c(O)c(Br)c1)c1cc(Br)c(O)c(Br)c1 as the molecule, how does the Potency read?
Answer: active: 44.7 µM

Question: For CSc1sc(C(=O)O)c2c1C(=O)CCC2, which Potency is on record?
Answer: inconclusive: 20 µM [inhibitor, partial curve, poor fit]

Question: How did the Potency turn out when O=C(N[C@H]1CCN2C(=O)c3cc(-c4ccc(Cl)cc4)ccc3NC(=O)[C@H]12)c1cccs1 was run?
Answer: inconclusive: 22.4 µM [inhibitor, full curve]

Question: Which Potency does the source give for O=C(CCCl)N1CCN(c2nc(-c3ccccc3)cs2)CC1 here?
Answer: inconclusive: 89.1 µM [inhibitor, single point]

Question: How did the Potency turn out when CC1(COc2ccccc2)COc2ccc(C(=O)Nc3ccc4[nH]ccc4c3)cc2N1 (configuration not stated) was run?
Answer: inconclusive: 89.1 µM [inhibitor, partial curve, poor fit]

Question: With COc1ccc(CN=C2Nc3ccccc3CS2)cc1 as the molecule, how does the Potency read?
Answer: inactive

Question: How did the Potency turn out when CC(=O)c1c(C)[nH]c(C(=O)CSc2nnc(-c3ccco3)o2)c1C was run?
Answer: inactive

Question: CCCCn1ccc2nc3ccn(-c4ncn[nH]4)c(=O)c3cc2c1=O was tested. Which Potency did it give?
Answer: inconclusive: 2.51 µM [inhibitor, full curve, poor fit]

Question: With CC1=C[C@@H](CNC2CCOCC2)[C@H](C(C)C)C[C@H]1Cc1nc2ccccc2n1C as the molecule, how does the Potency read?
Answer: inactive

Question: O=S(=O)(Nc1ccc(-c2cn3ccsc3n2)cc1)c1cccs1 was tested. Which Potency did it give?
Answer: inactive

Question: How did the Potency turn out when Cc1ccc(S(=O)(=O)Nc2nc(-c3ccc(F)cc3)cs2)cc1 was run?
Answer: inconclusive: 70.8 µM [inhibitor, partial curve, poor fit]

Question: Which Potency does the source give for O=C(Nc1nnc(SCc2ccc(Cl)cc2)s1)c1ccco1 here?
Answer: inactive

Question: For Cc1nc2ccc(NC(=O)COc3ccccc3C)cc2s1, which Potency is on record?
Answer: inconclusive: 100 µM [inhibitor, single point]

Question: CC(=O)c1c(C)[nH]c(C(=O)CSc2nnc(-c3ccc(Cl)cc3)n2CC2CCCO2)c1C (configuration not stated) was tested. Which Potency did it give?
Answer: inconclusive: 50.1 µM [inhibitor, partial curve, poor fit]

Question: CCOC(=O)C1CCN(Cc2ccc3ccccc3c2)CC1 was tested. Which Potency did it give?
Answer: inconclusive: 5.01 µM [inhibitor, full curve, poor fit]

Question: COc1ccc2c(C)c(CCC(=O)N3CCOCC3)c(=O)oc2c1C was tested. Which Potency did it give?
Answer: inactive

Question: With c1ccc2c(c1)c1ccccc1n2CN1CCOCC1 as the molecule, how does the Potency read?
Answer: inconclusive: 44.7 µM [inhibitor, partial curve, poor fit]

Question: Which Potency does the source give for COc1ccc(OC)c(CCNC(=O)Cn2ccc3cc(S(=O)(=O)N4CCCCC4)ccc32)c1 here?
Answer: inactive

Question: CCc1nc2ccc(C(=O)NCc3ccccc3OC)cn2c1N(CC)CCN(C)C was tested. Which Potency did it give?
Answer: inconclusive: 112 µM [inhibitor, partial curve, poor fit]

Question: For COc1ccc(-c2noc([C@@H]3Cc4nc[nH]c4CN3C(=O)NC3CCCCC3)n2)cc1, which Potency is on record?
Answer: active: 3.55 µM

Question: How did the activity change, negative = inhibition turn out when O=C(c1ccc(Cl)s1)N1CCC2(COc3ncccc3S(=O)(=O)N2)C1 (configuration not stated) was run?
Answer: inactive: 3.94% [at 6.33 µM]

Question: How did the Potency turn out when O=[N+]([O-])c1ccc2nc(-c3ccccc3)n(OCc3ccc(Cl)cc3)c2c1 was run?
Answer: inactive

Question: How did the Potency turn out when Clc1cccc(-c2ccc3ncnc(NCc4cccs4)c3c2)c1 was run?
Answer: inconclusive: 39.8 µM [inhibitor, partial curve]

Question: Which Potency does the source give for O=C(N/N=C/c1cc(Cl)cc([N+](=O)[O-])c1O)C(O)(c1ccccc1)c1ccccc1 here?
Answer: inconclusive: 39.8 µM [inhibitor, partial curve, poor fit]

Question: For COc1ccc(OC)c(C(c2nnnn2C2CCCC2)N2CCN(c3ccc(F)cc3)CC2)c1 (configuration not stated), which Potency is on record?
Answer: inconclusive: 35.5 µM [inhibitor, partial curve, poor fit]

Question: How did the Potency turn out when COc1ccc([C@H]2N[C@]3(CCCN(Cc4cccn4C)C3=O)[C@H]3C(=O)N(C)C(=O)[C@@H]23)cc1 was run?
Answer: active: 11.2 µM

Question: O=C(O)C1=C[C@H](c2cccs2)C[C@H](OCc2ccc(CO)cc2)O1 was tested. Which Potency did it give?
Answer: inconclusive: 39.8 µM [inhibitor, partial curve]
